Results are given in words; binding and its absence hold for the method and conditions named. Some entries that bind do so weakly or less than the wild type.
Molecular target: Tyrosine-protein kinase transmembrane receptor ROR1 (human) (UniProt Q01973)
Assay: flow cytometry, saturation binding of the mAb with Qifikit on human cell lines

By UniProt entry, the sequences of proteins in these tests, tags left out. Residues count along the entry.
UniProt Q01973, residues 30-937: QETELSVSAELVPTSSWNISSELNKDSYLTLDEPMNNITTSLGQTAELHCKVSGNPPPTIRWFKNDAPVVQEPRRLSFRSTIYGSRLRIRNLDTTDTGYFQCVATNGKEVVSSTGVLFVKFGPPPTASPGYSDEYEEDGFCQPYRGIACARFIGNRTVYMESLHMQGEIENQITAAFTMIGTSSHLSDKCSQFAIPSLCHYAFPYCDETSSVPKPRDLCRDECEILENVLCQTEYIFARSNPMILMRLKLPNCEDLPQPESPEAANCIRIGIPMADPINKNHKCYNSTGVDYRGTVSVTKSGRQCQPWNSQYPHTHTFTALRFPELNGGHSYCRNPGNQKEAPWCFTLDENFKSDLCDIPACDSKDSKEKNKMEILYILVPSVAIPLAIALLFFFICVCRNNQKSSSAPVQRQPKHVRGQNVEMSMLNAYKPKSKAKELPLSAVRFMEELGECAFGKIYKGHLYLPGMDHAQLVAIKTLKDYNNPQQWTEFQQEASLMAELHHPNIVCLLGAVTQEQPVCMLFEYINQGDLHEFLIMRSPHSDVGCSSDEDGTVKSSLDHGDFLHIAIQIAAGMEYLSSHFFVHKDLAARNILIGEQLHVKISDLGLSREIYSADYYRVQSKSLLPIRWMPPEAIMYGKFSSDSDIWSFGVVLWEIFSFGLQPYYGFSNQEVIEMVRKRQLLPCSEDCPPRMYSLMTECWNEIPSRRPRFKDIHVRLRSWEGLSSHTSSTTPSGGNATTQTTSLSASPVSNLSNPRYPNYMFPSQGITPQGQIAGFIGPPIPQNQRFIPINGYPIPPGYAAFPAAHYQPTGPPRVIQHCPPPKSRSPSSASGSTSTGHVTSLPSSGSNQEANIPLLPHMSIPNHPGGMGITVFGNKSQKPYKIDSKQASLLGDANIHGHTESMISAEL

B1: anti-human ROR1 mAb clone 2A2 (antibody, V domains shown)
VH: QVQLQQSGAELVRPGASVTLSCKASGYTFSDYEMHWVIQTPVHGLEWIGAIDPETGGTAYNQKFKGKAILTADKSSSTAYMELRSLTSEDSAVYYCTGYYDYDSFTYWGQGTLVTVSA
VL: DIVMTQSQKIMSTTVGDRVSITCKASQNVDAAVAWYQQKPGQSPKLLIYSASNRYTGVPDRFTGSGSGTDFTLTISNMQSEDLADYFCQQYDIYPYTFGGGTKLEIK
**Q.** For B1, which binding is on record?
**A.** Its binding is “binds”.

Source: patent publication US20170283497A1 (CELLECTIS, published 2017)
